Literature values as cited in patent US20130158063A1, “Compounds, Compositions and Methods Related to PPAR Antagonists” (GEORGETOWN UNIVERSITY, priority 2010, published 2013).
At least one structure is not confirmed: it was looked up by name or label, or the drawing left a doubt.

Settings: cited from earlier work

In the case of O=C(NCCS(=O)(=O)c1ccc(C(F)(F)F)cn1)c1ccc(Cl)cc1 [BTB07995, reference compound], the “Pharmacokinetic properties (literature)” value is given as “good pharmacokinetic properties”.
